Results taken from the supplement of paper PMC11150407.
The campaign covered roughly 3,000 compounds. About 45 (2%) showed an effect of 50% or more. The list shows a part of the results.

system: MOLM1 and UCSD/AML1 (averaged); test: cell viability relative to DMSO control (POC); higher = less growth inhibition; conditions: 1 µM; 72 h
Method: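 Primary viability screen in the 3q26 EVI1-high AML cell lines MOLM1 and UCSD/AML1, compounds at 1 uM for 72 h. ATP CellTiter-Glo read-out given as percent viable over DMSO control (POC), averaged over duplicates. This mapping covers the TimTec NDL-3000 natural derivative library, whose compounds are identified by TimTec catalogue codes (ST...).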

Structure (SMILES)	cell viability [%]
Cc1ccccc1-c1nc(CSc2nc3c(=O)[nH]cnc3n2C)c(C)o1	99.5
COc1cc(C2C(C#N)=C(N)OC3=C2C(=O)CC(C)(C)C3)cc2c1OCO2 (configuration not stated)	105
CCOc1cc(C(=O)Nc2ccn(C)n2)ccc1OC(F)F	87.8
Cc1ccn(C)c(=O)c1C#N	107
O=c1[nH]c(=O)n(C2C[C@H](O)[C@@H](CO)O2)cc1I (some centres not stated)	89.8
COCCOC(=O)/C(C#N)=C/c1cc(OC)c(OC)cc1OC	84.2
COc1cc2c(cc1OC)C(c1ccccc1)NCC2 (configuration not stated)	93.2
COc1cc(-c2cc(-c3ccccc3)c(C#N)c(=O)[nH]2)cc(OC)c1OC	93.2
CCOc1ccc2oc(=O)cc(CN(Cc3ccco3)C3CCCC3)c2c1	74
CC(=O)c1ccc(NC(=O)CSc2nc3c(=O)[nH]cnc3n2-c2ccc(C)cc2)cc1	100
COc1cc(OC)cc(C(=O)N2CCN(C(=O)c3ccccc3OC)CC2)c1	101
COc1cc2c(cc1OC)CN(C(=O)CSc1nc3c(c(-c4ccccc4)c1C#N)CCC3)CC2	99.6
COc1cccc(/C=C/C(=O)c2ccc3c(c2)OCO3)c1OC	76
COc1ccc(OC)c(NC(=O)Cn2c(=O)cc(C(=O)N3CCc4ccccc4C3)c3ccccc32)c1	99.2
COc1ccc(C2Nc3ccccc3NC3=C2C(=O)CC(c2ccccc2Cl)C3)cc1O (configuration not stated)	109
CC(=O)NCCc1c[nH]c2ccc(OCc3ccccc3)cc12	95.3
COc1ccccc1C1NCCC2(O)CCCCC12 (configuration not stated)	109
COc1ccc(C(=O)CC2(O)C(=O)N(Cc3cccc4ccccc34)c3ccccc32)cc1OC (configuration not stated)	97.5
COc1ccc(Nc2nc(N3CCN(c4nc(-c5ccc(F)cc5)cs4)CC3)nc3ccccc23)c(OC)c1	91.9
CC(=O)Nc1ccc(C(=O)NCCc2c[nH]c3ccc(C)cc23)cc1	98.4
CCCCC(NC(=O)c1ccc(Cl)cc1)C(=O)O (configuration not stated)	101
C[N+]12CCCCC1C(COc1ccccc1Br)CCC2 (configuration not stated)	96
CC(C)(C)OC(=O)N1Cc2[nH]c3ccccc3c2C[C@@H]1C(=O)O	97.1
COc1cc(/C=N/NC(=O)C2CC(=O)N(c3ccc(C)cc3)C2)cc(OC)c1OC (configuration not stated)	109
COc1ccc(-c2cc(=O)c3c(OC)c(OC)c(OC)cc3o2)cc1O	93.4
CCOc1cc2c(cc1OCC)C(c1ccc(OC)cc1OC)NCC2 (configuration not stated)	89.3

Structure (SMILES)	cell viability [%]
COc1ccc(C(=O)NCc2cc(C)nc3ccccc23)cc1OC	111
COc1cc(CSc2nc3c(Cl)cc(Cl)cc3o2)cc(OC)c1OC	102
O=C(CCN1C(=O)CCC1=O)OCC1CCCN2CCCCC12 (configuration not stated)	102
Cc1ccc(CSc2nc3c(c(=O)[nH]c(=O)n3C)n2CC(N)=O)cc1	96.6
CCOC(=O)c1cc(C2CC2)nc2c1c(=O)n(Cc1cc(=O)oc3ccc(OCC)cc13)c(=O)n2C	107
Cc1cccc2c1NC(=O)C21C(C#N)=C(N)Oc2c1c(=O)oc1ccccc21 (configuration not stated)	109
COc1ccc(NC(=O)Cc2ccccc2)c(OC)c1	107
Cn1c(SCc2ccc(Cl)cc2)nc2c(=O)[nH]cnc21	90
O=C(Cn1c(=O)cc(C(=O)N2CCCCC2)c2ccccc21)Nc1ccc(F)c(Cl)c1	98.9
CCc1ccc(OCC(=O)c2ccc(O)cc2O)cc1	90.8
COc1ccc(C2c3[nH]c4ccccc4c3CCN2Cc2ccc(C)cc2)cc1 (configuration not stated)	97
Nc1cc(=O)[nH]c(=O)n1-c1ccccc1	97.9
Cc1ccc(-n2c(SCC(=O)N(C)c3ccccc3)nc3c(=O)[nH]cnc32)cc1	106
O=C(O)CC(NC(=O)Cc1c[nH]c2ccccc12)C(=O)O (configuration not stated)	90.8
COc1ccc2[nH]c(C)c(CCNC(=O)c3ccc(C)cc3)c2c1	102
Cc1ccc(O)c(C(=O)/C=C/c2ccccc2)c1	98.2
CN(C)Cc1c(O)ccc2c(=O)c(-c3ccc(Cl)cc3Cl)coc12	102
COc1cc(CO)cc(OC)c1	98.9
Cc1ccc(S(=O)(=O)OC2C(C3COC(C)(C)O3)OC3OC(C)(C)OC32)cc1 (configuration not stated)	97
Cc1cc2c(C(C)C)c(O)c(O)c(C=Nc3ccc(C(O)C(O)CO)cc3)c2c(O)c1-c1c(C)cc2c(C(C)C)c(O)c(O)c(C=Nc3ccc(C(O)C(O)CO)cc3)c2c1O (configuration not stated)	103
C=C(C)C1CCC2(COC(=O)c3ccccc3C(=O)O)CCC3(C)C(CCC4C5(C)CCC(OC(=O)c6ccccc6C(=O)O)C(C)(C)C5CCC43C)C12 (configuration not stated)	95.2
O=C(/C=C/c1ccccc1O)c1ccc(O)cc1O	61.3
O=C(Cn1c(=O)cc(C(=O)N2CCOCC2)c2ccccc21)Nc1ccc2c(c1)OCO2	95.8
COc1ccc(/C=C/C(=O)c2ccccc2)cc1COc1ccc(Cl)cc1	106
COc1ccc2c(c1)c(CC(=O)N1CCN(c3ccccc3)CC1)c(C)n2C(=O)c1ccc(Cl)cc1	97.5
ClC1(Cl)C2C3C4C5CC5C(C3C3(CC3)C21)C41CC1 (configuration not stated)	124

Structure (SMILES)	cell viability [%]
COc1cc(C(=O)N2CCN(C(=O)C34CC5CC(CC(C5)C3)C4)CC2)cc(OC)c1OC	97.5
COc1cc(C(C)=O)ccc1OC(=O)C(C)N1C(=O)c2ccccc2C1=O (configuration not stated)	97.2
CCOC(=O)C1=C(C)NC2=C(C(=O)CC(c3ccc(Cl)cc3)C2)C1c1ccc(O)c(OCC)c1 (configuration not stated)	104
COc1ccc(OC)c(NC(=O)CSc2nc3c(=O)[nH]cnc3n2-c2ccc(C)cc2)c1	105
CCOC(=O)CSc1nc2c(c(=O)[nH]c(=O)n2C)n1Cc1cccc(C)c1	100
CCCc1cc(=O)[nH]c(SCc2ccc(C(=O)Nc3c(C)cccc3C)cc2)n1	105
COc1ccc(Br)cc1C1C(C(=O)OCC2CCCO2)=C(C)NC2=C1C(=O)CCC2 (configuration not stated)	90.8
COc1ccc(C(=O)/C=C/c2ccc(OC)c(Cn3nc(C)c(Br)c3C)c2)cc1	102
COc1cc(C(C)=O)ccc1OCc1ccc(Cl)cc1Cl	105
COc1ccc(C2c3[nH]c4ccccc4c3CCN2C(=O)/C=C/c2cc(OC)c(OC)c(OC)c2)cc1 (configuration not stated)	32.6
COc1cc(C(=O)Nc2ccc(C(=O)c3nccn3C)cc2)cc(OC)c1OC	91.8
COc1cc(-c2c(C#N)c(N)nc(SCC(=O)Nc3ccc(S(N)(=O)=O)cc3)c2C#N)cc(OC)c1OC	102
COc1cc(OC)cc(C(=O)n2nc(C)c(-c3ccccc3)c2N)c1	100
COc1ccc(C=O)c(C(=O)O)c1OC	99.2
CCCCc1[nH]nc2c1C(c1ccc(O)c(OC)c1)C(C#N)=C(N)O2 (configuration not stated)	104
COc1ccc2oc(=O)cc(CN3CCN(Cc4ccc(F)cc4)CC3)c2c1	103
CCCOc1ccc(C(CC(=O)O)NC(=O)c2ccc3c(c2)OCO3)cc1 (configuration not stated)	97.5
Cc1[nH]c2ccccc2c1CCN1C(=O)c2ccccc2C1(O)c1ccccc1 (configuration not stated)	99.3
COc1ccc(C(=O)NCCOc2cccc(Oc3ccccc3)c2)cc1OC	88.1
NC(=O)NC(CCCN=C(N)N)C(=O)O (configuration not stated)	101
COc1cc(-c2ccc(/C=C/c3[nH]c(=O)[nH]c(=O)c3Cl)o2)c(OC)cc1Cl	110
CCc1ccccc1NC(=O)CSc1nc2c(=O)[nH]cnc2n1-c1ccc(C)cc1	98.7
COC(=O)c1cc(C(C)(C)C)cc(C(C)(C)C)c1O	109
CCOc1cc(C2/C(=C(/O)c3ccc(OC)c(OC)c3)C(=O)C(=O)N2C)ccc1O (configuration not stated)	101
COc1ccc2c(c1)c(CC(=O)OCc1ccccc1F)c(C)n2C(=O)c1ccc(Cl)cc1	104
Cc1ccc2oc(C(Cl)(Cl)Cl)cc(=O)c2c1	26.6

Copied from the list:
In cell viability [%], CCOc1cc(C2/C(=C(/O)c3ccc(OC)c(OC)c3)C(=O)C(=O)N2C)ccc1O (configuration not stated) is listed with 101
In cell viability [%], COc1cc(-c2c(C#N)c(N)nc(SCC(=O)Nc3ccc(S(N)(=O)=O)cc3)c2C#N)cc(OC)c1OC is listed with 102
In cell viability [%], CCOC(=O)C1=C(C)NC2=C(C(=O)CC(c3ccc(Cl)cc3)C2)C1c1ccc(O)c(OCC)c1 (configuration not stated) is listed with 104

Continued:

Structure (SMILES)	cell viability [%]
COc1ccc(OCC(=O)NC(Cc2c[nH]c3ccccc23)C(=O)O)cc1 (configuration not stated)	93.4
COc1cc(OC)c(C(=O)N2CCCCC2)cc1OC	109
CC(C)(C)c1nnc(NC(=O)c2ccc3c(c2)OCO3)s1	98
COc1cc(C(=O)CCNc2cccc(Cl)c2)cc(OC)c1OC	90.7
COc1cc(C2C3=C(CC(C)(C)CC3=O)N(c3ccccc3)C3=C2C(=O)CC(C)(C)C3)ccc1O	97.8
CCCCOc1ccc(C2=NOC(=O)/C2=C\c2ccccc2)cc1	103
CCOc1ccccc1-c1nc(CSc2nc3c(=O)[nH]cnc3n2C)c(C)o1	110
COc1ccc(C(=O)/C=C2\C(=O)Nc3ccccc32)cc1OC	52.3
COc1cccc(-c2cc(=O)c3c(OC)cccc3o2)c1	64
CCOC(=O)C1=C(C)NC2=C(C(=O)CC(c3ccc(Cl)cc3)C2)C1c1cc(OC)c(OC)c(OC)c1 (configuration not stated)	100
CC1Nc2nc3ccccc3n2C(c2cccc(F)c2)=C1C(=O)c1ccccc1 (configuration not stated)	105
COc1ccc(C(=O)Nc2ccc3c(c2)NC(=O)C(C)O3)cc1OC (configuration not stated)	95.8
COc1ccc(NC(=O)CSc2nc3c(=O)[nH]cnc3n2-c2ccc(C)cc2)cc1	102
CC(=O)c1ccc2c(c1)OCCCO2	93.7
O=c1c(O)c(-c2ccc(F)cc2)oc2cc(Cl)ccc12	100
CCC1(C)CC(CC(=O)O)(c2ccc(OC)cc2)CCO1 (configuration not stated)	97.5
COc1ccc(-c2cn3c4c(=O)n(C)c(=O)n(C)c4nc3n2-c2ccc(O)cc2)cc1	101
Cc1cc(Oc2ccc3ccccc3c2)nc(SCC(=O)c2ccccc2)n1	97.3
Cn1c(SCc2ccc(F)cc2Cl)nc2c(=O)[nH]cnc21	89
N#CC1=C(N)Oc2oc3cc(Cl)ccc3c(=O)c2C1c1ccccc1 (configuration not stated)	105
Cc1ccc(NC(=O)CSc2nc3c(=O)[nH]cnc3n2-c2ccc(C)cc2)cc1	111
CCOc1cc(C2C(C(=O)OC)=C(C)NC3=C2C(=O)CC(c2ccc(Cl)cc2)C3)cc(Br)c1O (configuration not stated)	99.6
C/C(Cl)=C/Cn1c(N/N=C(/C)c2ccc(Cl)cc2)nc2c1c(=O)[nH]c(=O)n2C	103
CCCNC(=O)c1cc(=O)n(CC(=O)Nc2cc(C)ccc2C)c2ccccc12	94.8

Sorted by length of the SMILES (low to high): 25 of the compounds above.
Structure (SMILES)	cell viability [%]
CC(=O)c1ccc2c(c1)OCCCO2	93.7
NC(=O)NC(CCCN=C(N)N)C(=O)O (configuration not stated)	101
COc1cc(OC)c(C(=O)N2CCCCC2)cc1OC	109
Cc1ccc2oc(C(Cl)(Cl)Cl)cc(=O)c2c1	26.6
COc1cccc(-c2cc(=O)c3c(OC)cccc3o2)c1	64
COC(=O)c1cc(C(C)(C)C)cc(C(C)(C)C)c1O	109
O=c1c(O)c(-c2ccc(F)cc2)oc2cc(Cl)ccc12	100
COc1cc(C(=O)CCNc2cccc(Cl)c2)cc(OC)c1OC	90.7
CCCCOc1ccc(C2=NOC(=O)/C2=C\c2ccccc2)cc1	103
COc1ccc(C(=O)/C=C2\C(=O)Nc3ccccc32)cc1OC	52.3
COc1ccc(C(=O)NCCOc2cccc(Oc3ccccc3)c2)cc1OC	88.1
Cc1cc(Oc2ccc3ccccc3c2)nc(SCC(=O)c2ccccc2)n1	97.3
COc1ccc(OCC(=O)NC(Cc2c[nH]c3ccccc23)C(=O)O)cc1 (configuration not stated)	93.4
CCOc1ccccc1-c1nc(CSc2nc3c(=O)[nH]cnc3n2C)c(C)o1	110
CCCNC(=O)c1cc(=O)n(CC(=O)Nc2cc(C)ccc2C)c2ccccc12	94.8
CCc1ccccc1NC(=O)CSc1nc2c(=O)[nH]cnc2n1-c1ccc(C)cc1	98.7
Cc1ccc(NC(=O)CSc2nc3c(=O)[nH]cnc3n2-c2ccc(C)cc2)cc1	111
COc1ccc(NC(=O)CSc2nc3c(=O)[nH]cnc3n2-c2ccc(C)cc2)cc1	102
CCOc1cc(C2/C(=C(/O)c3ccc(OC)c(OC)c3)C(=O)C(=O)N2C)ccc1O (configuration not stated)	101
COc1ccc2c(c1)c(CC(=O)OCc1ccccc1F)c(C)n2C(=O)c1ccc(Cl)cc1	104
COc1ccc(-c2cn3c4c(=O)n(C)c(=O)n(C)c4nc3n2-c2ccc(O)cc2)cc1	101
C/C(Cl)=C/Cn1c(N/N=C(/C)c2ccc(Cl)cc2)nc2c1c(=O)[nH]c(=O)n2C	103
CCOc1cc(C2C(C(=O)OC)=C(C)NC3=C2C(=O)CC(c2ccc(Cl)cc2)C3)cc(Br)c1O (configuration not stated)	99.6
COc1cc(C2C3=C(CC(C)(C)CC3=O)N(c3ccccc3)C3=C2C(=O)CC(C)(C)C3)ccc1O	97.8
CCOC(=O)C1=C(C)NC2=C(C(=O)CC(c3ccc(Cl)cc3)C2)C1c1cc(OC)c(OC)c(OC)c1 (configuration not stated)	100
